Source: patent US11807612B2, “Heterocyclic compound and salt thereof, and luminescent substrate composition” (The University of Electro-Communications, priority 2020, dated 2023)
Some entries share one result that the patent states for a list of compounds.

Amino acid sequences for entries named in this document (tags omitted).
UniProt P08659, whole entry: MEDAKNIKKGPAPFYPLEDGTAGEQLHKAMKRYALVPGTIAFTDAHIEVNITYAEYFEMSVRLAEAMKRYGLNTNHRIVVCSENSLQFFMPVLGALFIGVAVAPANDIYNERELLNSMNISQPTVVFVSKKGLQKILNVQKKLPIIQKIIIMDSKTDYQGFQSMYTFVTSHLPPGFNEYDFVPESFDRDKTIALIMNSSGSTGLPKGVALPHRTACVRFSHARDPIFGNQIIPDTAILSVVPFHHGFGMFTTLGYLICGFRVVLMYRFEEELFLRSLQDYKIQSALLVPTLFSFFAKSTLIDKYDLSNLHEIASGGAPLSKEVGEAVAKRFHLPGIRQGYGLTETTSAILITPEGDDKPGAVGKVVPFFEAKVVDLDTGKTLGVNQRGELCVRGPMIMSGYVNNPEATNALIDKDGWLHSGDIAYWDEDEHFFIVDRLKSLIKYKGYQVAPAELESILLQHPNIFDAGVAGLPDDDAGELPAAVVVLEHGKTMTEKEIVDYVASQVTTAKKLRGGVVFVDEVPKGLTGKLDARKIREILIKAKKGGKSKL

Target: T1, Ppy luciferase (derived from North American firefly Photinus pyralis) (Photinus pyralis, UniProt P08659)
T1 construct: purchased Promega Corporation E1701
Experiment: Luminescence spectrum measurement of luminescent substrates with Ppy luciferase, ATP-Mg
Type: biochemical
Details: same conditions; FIGS. 1 and 2
Method: The luminescent substrates represented by structural formulae (1-1) and (1-2) that were synthesized as described above, a luminescent substrate represented by the following structural formula (b), and natural firefly luciferin (LH2, produced by Wako Pure Chemical Industries, Ltd.) represented by the following structural formula (d) were each used to measure a luminescence spectrum. Note that the luminescent substrate represented by structural formula (b) was prepared in accordance with Example 1 of JP2014-218456A (PTL 2).
A weak emission fluorescence spectrometer AB-1850 produced by ATTO Corporation was used to measure a luminescence spectrum. Each measured spectrum is a spectrum that has been corrected for detector characteristics (data interval 0.25 nm, measurement range 400 nm to 750 nm). […]
After mixing 5 μL of KPB solution (pH 8.0, 500 mM), 5 μL of luminescent substrate solution (100 μM), 5 μL of 1 mg/mL Ppy luciferase solution, and 10 μL of 200 μM ATP-Mg solution at room temperature, luminescence spectrum measurement was performed for 180 seconds using the luminescence spectrum measurement apparatus (AB-1850). The luminescence intensity was compared by the peak top value at this time. […]
FIG. 1 is a luminescence spectrum normalized to give a maximum value for luminescence intensity of 1, and FIG. 2 is a luminescence spectrum illustrating luminescence intensity at each wavelength.

| Structure (SMILES) | wavelength of emitted light |
| --- | --- |
| CN(C)c1ncc(/C=C/C=C/C2=N[C@@H](C(=O)O)CS2)s1 [structural formula (1-1), (S)-2-((1E,3E)-4-(2-(dimethylamino)thiazol-5-yl)buta-1,3-dien-1-yl)-4,5-dihydrothiazole-4-carboxylic acid] | exceeding 600 nm |
| CN(C)c1cnc(/C=C/C=C/C2=N[C@@H](C(=O)O)CS2)s1 [structural formula (1-2), (S)-2-((1E,3E)-4-(5-(dimethylamino)thiazol-2-yl)buta-1,3-dien-1-yl)-4,5-dihydrothiazole-4-carboxylic acid] | exceeding 600 nm |
